# Results reported in PubChem BioAssay AID493014 (National Center for Advancing Translational Sciences (NCATS), 2011).
# Screen size: about 340,000 compounds; about 170 (0.05%) were called active. Inconclusive means that the source gave no clear call. Such entries were picked first, then a sample of the others. The call rests on the fitted dose curve; in most records, active means well fitted inhibition curve with a large enough effect in the signal ratio, with a control signal flat (not every such curve was filed as active); inconclusive means small, poorly fitted or top-dose-only effect, or effect the other way, or a change in a side signal; inactive means flat fitted curve, though single readings scatter; the % refers to the signal ratio. Potencies of inconclusive entries are doubtful fits and often do not repeat.
# Assay: qHTS Assay to Find Inhibitors of Chronic Active B-Cell Receptor Signaling;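 on activity change, negative = inhibition: plate controls were basal doxycycline-induced cells for no effect and cells given 10 µM MG132 for full effect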
# Conditions: ABC-DLBCL IkBa-CBG/CBR reporter, luminescence ratio (green luciferase fused to IkBa over red control in TMD8 lymphoma cells), 4 h; activity change, negative = inhibition: at 46.1 µM (top of the series)
# Summary of the method: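 TMD8 human ABC-DLBCL cells with doxycycline-inducible IκBα–green luciferase fusion and unfused red luciferase, in 0.5% FBS medium; compounds up to 46 uM, 4 h at 37C. Green/red luminescence ratio, filter-overlap corrected, fitted to concentration-response curves.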
# Potency means the concentration at half of the fitted maximal effect.
SMILES,"activity change, negative = inhibition",Potency
Cc1ccc(/C=N/N2C(=S)SC(C)(C)C2N(O)C(=O)Nc2ccc([N+](=O)[O-])cc2)cc1 (stereo unspecified),inconclusive: -7.72%,–
O=C(CCCN1C(=O)/C(=C/c2cccc(Br)c2)SC1=S)Nc1cccnc1,–,"inconclusive: 31.6 µM [rising, single point]"
COc1ccc(Cl)cc1C(=O)N(Cc1nc(-c2cccc(C)c2)no1)C(C)C,–,"inconclusive: 35.5 µM [falling, single point]"
CCN(Cc1ccccc1)C(=O)CN1C(=O)NC(CC)(c2ccc(F)cc2)C1=O (stereo unspecified),inactive,–
CC1(C)Cc2c(ccc3ccccc23)/C(=C/C(=O)N2CCCCC2)N1,inactive,–
CCOc1ccc(CCNC(=O)COC(=O)CNC(=O)c2ccc(Br)o2)cc1OCC,inconclusive: 2.17%,–
O=C(/C=C\c1ccco1)c1ccc(NC(=O)c2ccco2)cc1,inactive,–
O=C(NC1C2CC3CC(C2)CC1C3)c1ccc2c(c1)OCO2 (stereo unspecified),inactive,–
O=C(COc1ccccc1)Nc1ccccc1C(=O)NCc1ccco1,–,"inconclusive: 15.8 µM [falling, partial curve, poor fit]"
Cc1cc(C)cc(N=Cc2ccc([N+](=O)[O-])s2)c1,–,"inconclusive: 29.1 µM [falling, partial curve, poor fit]"
CCOC(=O)C1=C(COC(=O)Cc2ccc(Cl)cc2)NC(=O)NC1C (stereo unspecified),inactive,–
Cc1ccnc2nc(C(=O)OCC(=O)N(Cc3ccccc3)C(C)C)nn12,inactive,–
O=C(N/N=C/c1cccnc1)c1cc(C2CC2)nc2ccccc12,–,"inconclusive: 12.6 µM [falling, partial curve]"
CCOC(=O)C1CCN(C(=O)c2cc(-c3ccncc3)nc3ccccc23)CC1,inconclusive: 3.03%,–
Cc1cccc(Oc2ccccc2N)c1,inconclusive: 18.9%,–
COC(=O)CNC(=O)c1c(-c2c(Cl)cccc2Cl)noc1C,inconclusive: 1.21%,–
OC(COCc1cccs1)CN1CCN(c2ccccc2Cl)CC1 (stereo unspecified),inconclusive: 1.37%,–
CCSc1nnc(NC(=O)c2c(-c3ccccc3Cl)noc2C)s1,inconclusive: -6.84%,–
CC1CN(C(=O)c2cc(S(=O)(=O)N3CCN(c4ccccc4)CC3)ccc2Cl)CC(C)O1 (stereo unspecified),inactive,–
C/C(CC(=O)Nc1cc(C)cc(C)c1)=N\NC(=O)c1ccccn1,–,"inconclusive: 6.51 µM [falling, single point]"
c1ccc(N2CCN(c3nc4ccccc4n4nnnc34)CC2)cc1,inconclusive: 15.1%,–
CC(C)c1nnc(NC(=O)CCC(=O)NCC2CCCO2)s1 (stereo unspecified),inconclusive: 0.346%,–
C[N+](C)(C)CCCCCCCCCC[N+](C)(C)C,inconclusive: 9.34%,–
COCCCNC1=C(Cl)C(=O)c2ccccc2C1=O,inactive,–
O=C1N/C(=N\c2ccccn2)SC1Cc1ccc(Cl)cc1 (stereo unspecified),inconclusive: 9.67%,–
CS(=O)(=O)N1CCN(c2ccccc2NC(=O)c2cccc3ccccc23)CC1,inconclusive: 13%,–

# A second format for 2 compounds above.
SMILES	activity change, negative = inhibition	Potency
CCOC(=O)C1=C(COC(=O)Cc2ccc(Cl)cc2)NC(=O)NC1C (stereo unspecified)	inactive	–
Cc1ccnc2nc(C(=O)OCC(=O)N(Cc3ccccc3)C(C)C)nn12	inactive	–

# (cont.)

SMILES,"activity change, negative = inhibition",Potency
CC1CCCN(S(=O)(=O)c2ccc(NC(=O)Cc3ccc(S(=O)(=O)N4CCOCC4)s3)cc2)C1 (stereo unspecified),inconclusive: 6.45%,–
CCOC(=O)c1cnc2cc(F)c(F)cc2c1N1CCOCC1,inactive,–
CC(C)NC(=O)c1ccc2c(c1)N(CC(=O)N1CCCC1)C(=O)C(C)(C)O2,inconclusive: 4.34%,–
CCCc1nn(C)c2c(=O)[nH]c(-c3cc(S(=O)(=O)Nc4ccc(NC(C)=O)cc4)ccc3OCC)nc12,inactive,–
O=C(NC(=S)Nc1ccc(S(=O)(=O)N2CCCC2)cc1)C1CC1,inconclusive: -3.88%,–
Cc1c(Cl)c(C(=O)NNC(=S)NCc2ccco2)nn1C,–,"inconclusive: 29.1 µM [falling, single point]"
COC(=O)c1ccc(C(c2c(C)[nH][nH]c2=O)c2c(C)[nH][nH]c2=O)cc1,inactive,–
CN1/C(=C\C(=S)NC(=O)c2cccc(Br)c2)C(C)(C)c2ccccc21,inconclusive: 0.641%,–
CN1c2ccsc2C(O)=C(C(=O)Nc2ccccc2)S1(=O)=O,–,"inconclusive: 4.61 µM [falling, partial curve]"
Cc1ccccc1NC(=S)NNC(=O)c1ccco1,–,"inconclusive: 11.2 µM [falling, partial curve, poor fit]"
Cc1c(CC(=O)NCCC(C)C)c(=O)oc2cc3c(cc12)CCC(C)(C)O3,inconclusive: -0.523%,–
CN(CC(=O)Nc1ccc(Cl)cc1)C(=O)Cc1c(F)cccc1Cl,inactive,–
COc1cccc(Cn2cnc3c(NS(=O)(=O)c4ccc(Cl)cc4Cl)c(C)c(C)cc32)c1,inconclusive: 15.2%,–
CN(C)S(=O)(=O)c1ccc(C(=O)N2CCN(C(=O)C3CCCO3)CC2)cc1 (stereo unspecified),inconclusive: 2.04%,–
O=C(NC(CO)Cc1ccccc1)c1ccccc1 (stereo unspecified),–,"inconclusive: 23.1 µM [falling, partial curve, poor fit]"
COc1ccc(C(=O)OCC(=O)N2CCCCC2)cc1[N+](=O)[O-],–,"inconclusive: 11.2 µM [falling, partial curve]"
COc1ccccc1NS(=O)(=O)c1ccc(O)cc1,–,"inconclusive: 10.3 µM [falling, partial curve]"
CC(C)CNC(=O)COC(=O)C1c2ccccc2Oc2ccccc21,inconclusive: -1.8%,–
Cc1ccc2nc(N(CCCN(C)C)C(=O)c3ccco3)sc2c1,inconclusive: 4.74%,–
CN(C)c1ccc(CNC(=O)C2CCN(S(=O)(=O)c3ccc4c(c3)CCCC(=O)N4)CC2)cc1,inconclusive: 5.18%,–
CC(C)(C)C(=O)Nc1ccc(C(=O)CN2C(=O)NC3(CCOc4ccccc43)C2=O)cc1 (stereo unspecified),inconclusive: 1.33%,–
COc1ccc(NC(=S)NNc2ccc(C(=O)O)cc2)cc1,–,"inconclusive: 12.6 µM [falling, partial curve]"
Cc1ccc(-c2nc(-c3ccccn3)no2)cc1,–,"inconclusive: 35.5 µM [rising, single point]"
O=C1C(=O)c2ccccc2C(O)=C1CCCCl,–,"inconclusive: 5.01 µM [falling, partial curve, poor fit]"
O/N=C1/C2C3CC4C5C3C1C5C1(OCCO1)C42 (stereo unspecified),inconclusive: 0.504%,–
